# Laboratory results: patent US20080219971A1
# Positions count from the first letter of the chain named. Results are given in words; binding and its absence hold for the method and conditions named.
# B1: MAb 301 (antibody, human IgG1, V domains shown)
# VH: EVQLQQSGPELVKPGASVKMSCKASGYTFTDYYMDWVKQSHGESFEWIGRVNPYHGGATYNQKFKGKATLTVDKSSRTAYMELNSLTYEDSAVYYCAREENSYDGYYGMDYWGQGTTVTVSS
# VL: DIVLTQSPSSLSVSAGEKVTMDCKSSQSLFNSGNQKNYLAWYHQKPGQPPKLLIYGASTRESGVPDRFTGSGSGTDFTLTISSVQAEDLAVYYCQNDHTYPYTFGGGTKLEIK
# B2: MAb 657 (antibody, human IgG1, V domains shown)
# VH: QVQLVQSGAEVKKPGSSVKVSCKASGYTFTDYYMDWVRQAPGQGLEWIGRVNPYHGGATYNQKFKGKATITVDKSTSTAYMELSSLRSEDTAVYYCAREENSYDGYYGMDYWGQGTLVTVSS
# VL: DIVMTQSPLSLPVSPGEPATINCKSSQSLFNSGNQKNYLAWYLQKPGQPPKLLIYGASTRESGVPDRFSGSGSGTDFTLTISSLQAEDVAVYYCQNDHTYPYTFGQGTKLEIK
# B3: MAb 1656 (antibody, human IgG1, V domains shown)
# VH: B2 VH with I48M, K67R, A68V, V72A
# VL: B2 VL
# B4: MAb 1808 (antibody, human IgG4, V domains shown)
# VH: B2 VH with I48M, K67R, A68V, V72A
# VL: B2 VL
# B5: MAb 1807 (antibody, human IgG4, V domains shown)
# VH: B2 VH
# VL: B2 VL
# Target: insulin
# Assay: ELISA
row,binding,Binder
1,no binding,B1
2,no binding,B2
3,no binding,B3
4,no binding,B4
5,no binding,B5

# Target: hemoglobin
# Assay: ELISA
row,binding,Binder
1,no binding,B1
2,no binding,B2
3,no binding,B3
4,no binding,B4
5,no binding,B5
